Sequences of proteins named here, by UniProt entry; tags and fusion partners are left off. A change or cut given only in a name is not applied to a line headed by its entry.
UniProt Q9UNA4: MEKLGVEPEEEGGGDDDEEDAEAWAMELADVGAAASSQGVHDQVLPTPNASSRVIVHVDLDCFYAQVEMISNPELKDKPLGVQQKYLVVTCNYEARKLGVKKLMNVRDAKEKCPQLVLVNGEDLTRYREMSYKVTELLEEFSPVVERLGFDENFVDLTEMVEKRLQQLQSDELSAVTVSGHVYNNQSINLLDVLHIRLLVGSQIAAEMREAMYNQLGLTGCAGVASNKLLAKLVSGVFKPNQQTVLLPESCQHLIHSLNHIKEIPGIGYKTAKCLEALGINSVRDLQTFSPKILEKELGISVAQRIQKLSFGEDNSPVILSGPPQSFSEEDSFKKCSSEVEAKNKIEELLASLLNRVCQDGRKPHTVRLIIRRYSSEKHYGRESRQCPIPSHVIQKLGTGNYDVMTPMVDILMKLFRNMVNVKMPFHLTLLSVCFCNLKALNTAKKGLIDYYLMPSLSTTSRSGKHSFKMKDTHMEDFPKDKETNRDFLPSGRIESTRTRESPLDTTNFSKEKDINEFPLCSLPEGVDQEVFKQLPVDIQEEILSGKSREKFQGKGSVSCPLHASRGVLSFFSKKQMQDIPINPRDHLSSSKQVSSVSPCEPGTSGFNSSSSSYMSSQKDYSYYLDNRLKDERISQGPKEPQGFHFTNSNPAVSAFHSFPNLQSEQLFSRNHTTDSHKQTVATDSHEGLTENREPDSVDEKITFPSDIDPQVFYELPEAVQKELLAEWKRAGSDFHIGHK

Among all 390,000 compounds or so, about 4,000 (1%) were called active. The shares of active, inactive and inconclusive entries below differ from those in the screen. The call rests on the fitted dose curve; in most records, active means well fitted inhibition curve with a large enough effect; inconclusive means small, poorly fitted or top-dose-only effect, or another doubt; inactive means no such curve, though single readings can be large or run the other way. A potency beside an inconclusive call is a rough fit, not a confirmed value.
These molecules were tested against DNA polymerase iota (Homo sapiens) (UniProt Q9UNA4) (assay: qHTS for Inhibitors of Polymerase Iota). Settings: Pol iota fluorescent replication assay, 10 min; series mostly up to 115 µM.
Method in brief: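 Pol iota at 10 nM preincubated 15 min with compounds at room temperature; reaction started with fluorescent substrate, 50 nM final. Fluorescence read kinetically at 0 and 10 min; buffer-only wells as negative control.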
In the case of `COc1ccc(C2(C)NC(=O)NC2=O)cc1OC` (centres undefined), the Potency is reported as inconclusive: 70.8 µM [inhibitor, partial curve, poor fit]. In the case of `CN1CCN(C(=O)c2cc(=O)c3cc(Cl)ccc3o2)CC1`, the Potency is reported as “inactive”. In the case of `O=C(COC(=O)c1ccc(O)cc1)NC1CCCC1`, the Potency is reported as inconclusive: 79.4 µM [inhibitor, single point]. `COc1cccc(/C=C/C(=O)c2ccc3c(c2)OCCO3)c1OC` was tested, and the Potency was inconclusive: 22.4 µM [inhibitor, full curve, poor fit]. For `CCC1(c2ccccc2)C(=O)NCNC1=O`, the Potency was inconclusive: 5.62 µM [inhibitor, full curve, poor fit]. For `Cc1cc(C(=O)NNc2ccc(C)c(C)c2)no1`, the Potency was inconclusive: 2.24 µM [inhibitor, full curve]. `CCOC(=O)c1cccnc1SC(CC)C(=O)N1CCOCC1` (centres undefined) was tested, and the Potency was inconclusive: 56.2 µM [inhibitor, partial curve, poor fit]. With `COc1ccccc1OC(=O)CCN1c2ccccc2Sc2ccccc21` the Potency was “inactive”. `Cn1c(CC(=O)NNC(=O)c2cccnc2)nc2ccccc21` was tested, and the Potency was inconclusive: 39.8 µM [inhibitor, partial curve, poor fit]. For `CCOC(=O)c1c(C)[nH]c(C)c1C(=O)COC(=O)/C=C/c1ccco1`, the Potency was inconclusive: 79.4 µM [inhibitor, partial curve, poor fit]. For `Cc1cccc(NC(=S)NC(=O)Cc2ccccc2)c1C`, the Potency was inconclusive: 39.8 µM [inhibitor, single point]. In the case of `Cc1ccc(-n2c(-c3ccccc3)n[nH]c2=S)c(C)c1`, the Potency is reported as “inactive”. For `COc1ccc(S(=O)(=O)N2CCOCC2)cc1NC(=O)c1ccc2c(c1)OCO2`, the Potency was inconclusive: 22.4 µM [inhibitor, single point]. With `COc1ccc(C2C3C=CCCC3(C)C(=O)N2Cc2ccccc2)cc1Cl` (centres undefined) the Potency was “inactive”. `CCN=C1S/C(=C\c2cc(Cl)c(OC)c(OC)c2)C(=O)N1CC` was tested, and the Potency was inconclusive: 79.4 µM [inhibitor, single point]. With `CCn1c(=O)cc(OCC(=O)Nc2cc(OC)c(OC)c(OC)c2)c2ccccc21` the Potency was “inactive”. With `COc1cc(/C=C2/C(=N)N3C(=NC2=O)SN=C3S(C)(=O)=O)ccc1OS(=O)(=O)c1ccc(C)cc1` the Potency was inconclusive: 17.8 µM [inhibitor, full curve]. `Cc1ccc(S(=O)(=O)N2CCCc3cc(NC(=O)c4ccccc4Cl)ccc32)cc1` was tested, and the Potency was inconclusive: 39.8 µM [inhibitor, partial curve, poor fit]. `CCC(C)(C)NC(=O)C(c1ccco1)N(C(=O)c1csnn1)c1cccc(F)c1` (centres undefined) was tested, and the Potency was inconclusive: 39.8 µM [inhibitor, single point].

Source: PubChem BioAssay AID588590 (National Center for Advancing Translational Sciences (NCATS), 2011)
Potency means the concentration at half of the fitted maximal effect.
